Experimental data from PMC9043132.
No constants are given. Whether binding was seen depends on the method and setting. Binding seen in cells or lysates may run through a third protein.

By UniProt entry, the sequences of proteins in these tests, tags left out.
UniProt P48643: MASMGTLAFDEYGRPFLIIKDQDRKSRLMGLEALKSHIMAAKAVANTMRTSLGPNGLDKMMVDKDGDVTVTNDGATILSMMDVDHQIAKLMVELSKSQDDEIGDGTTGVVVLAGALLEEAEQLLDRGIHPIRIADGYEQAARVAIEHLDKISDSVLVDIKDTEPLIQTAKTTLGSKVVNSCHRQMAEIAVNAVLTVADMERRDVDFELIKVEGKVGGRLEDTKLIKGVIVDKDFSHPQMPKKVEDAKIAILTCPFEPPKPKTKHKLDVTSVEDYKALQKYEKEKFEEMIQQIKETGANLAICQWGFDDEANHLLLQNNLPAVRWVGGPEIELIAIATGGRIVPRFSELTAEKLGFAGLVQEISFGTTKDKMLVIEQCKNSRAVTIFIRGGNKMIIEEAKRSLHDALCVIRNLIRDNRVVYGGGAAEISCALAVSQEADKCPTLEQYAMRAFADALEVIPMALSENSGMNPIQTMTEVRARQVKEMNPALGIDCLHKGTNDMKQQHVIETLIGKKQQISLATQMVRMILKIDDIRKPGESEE

Biological target: chaperonin-containing TCP1 subunit 5 (human (endogenous in HsRPE cells)) (UniProt P48643)
Assay: co-IP; HsRPE cell lysate incubated with 5 ug anti-CCT5 (or rabbit IgG control) at 4°C overnight, Protein A/G magnetic beads, Western blot of the precipitate

binding: no binding
B1: Mer receptor tyrosine kinase (receptor, UniProt Q12866 21-999)
chain: AITEAREEAKPYPLFPGPFPGSLQTDHTPLLSLPHASGYQPALMFSPTQPGRPHTGNVAIPQVTSVESKPLPPLAFKHTVGHIILSEHKGVKFNCSISVPNIYQDTTISWWKDGKELLGAHHAITQFYPDDEVTAIIASFSITSVQRSDNGSYICKMKINNEEIVSDPIYIEVQGLPHFTKQPESMNVTRNTAFNLTCQAVGPPEPVNIFWVQNSSRVNEQPEKSPSVLTVPGLTEMAVFSCEAHNDKGLTVSKGVQINIKAIPSPPTEVSIRNSTAHSILISWVPGFDGYSPFRNCSIQVKEADPLSNGSVMIFNTSALPHLYQIKQLQALANYSIGVSCMNEIGWSAVSPWILASTTEGAPSVAPLNVTVFLNESSDNVDIRWMKPPTKQQDGELVGYRISHVWQSAGISKELLEEVGQNGSRARISVQVHNATCTVRIAAVTRGGVGPFSDPVKIFIPAHGWVDYAPSSTPAPGNADPVLIIFGCFCGFILIGLILYISLAIRKRVQETKFGNAFTEEDSELVVNYIAKKSFCRRAIELTLHSLGVSEELQNKLEDVVIDRNLLILGKILGEGEFGSVMEGNLKQEDGTSLKVAVKTMKLDNSSQREIEEFLSEAACMKDFSHPNVIRLLGVCIEMSSQGIPKPMVILPFMKYGDLHTYLLYSRLETGPKHIPLQTLLKFMVDIALGMEYLSNRNFLHRDLAARNCMLRDDMTVCVADFGLSKKIYSGDYYRQGRIAKMPVKWIAIESLADRVYTSKSDVWAFGVTMWEIATRGMTPYPGVQNHEMYDYLLHGHRLKQPEDCLDELYEIMYSCWRTDPLDRPTFSVLRLQLEKLLESLPDVRNQADVIYVNTQLLESSEGLAQGSTLAPLDLNIDPDSIIASCTPRAAISVVTAEVHDSKPHEGRYILNGGSEEWEDLTSAPSAAVTAEKNSVLPGERLVRNGVSWSHSSMLPLGSSLPDELLFADDSSEGSEVLM
